PubChem BioAssay AID1259254 | NCATS – 2017

Aim: 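Genome-wide screen for genes that prevent DNA re-replication in cancer cells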 (primary screen)
Cell system: human HCT116 colorectal cancer cells
Knock-down reagent: single siRNA against human genes
Duration: 3 days
Read-out: 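Imaged Hoechst DNA stain sorts each cell into a cycle phase by DNA amount; per plate, G2 fraction set to 0% for non-targeting and 100% for GMNN siRNA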
Reading the numbers: G2 robust z-score and G2 cells, % of GMNN control: higher = more G2 cells, more excess DNA replication; raw share of cells in G2: higher = larger share of cells with G2 DNA content
Active means: 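An siRNA counts as active if its G2 robust z-score lies at least 5 MADs above the screen median; here such calls match roughly 38% of GMNN control or more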
This is an unselected part of about 59,000 deposited reagents. About 1,550 of them (2.6%) count as active. 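G2 share is only a proxy for re-replication; each gene was hit by three separate siRNAs, and active genes were retested.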 The raw values are shown without normalisation. The numbers tell different reagents against one gene apart. Reagent sequences are not shown. The record does not give: the amount of reagent.

G2 robust z-score | G2 cells, % of GMNN control | raw share of cells in G2 (%) | Outcome | gene | siRNA no.
-0.802 | -2.67 | 3.23 | inactive | NEIL1 | 1
0.3 | 5.08 | 6.67 | inactive | NEIL1 | 2
-0.618 | -1.38 | 4.85 | inactive | NEIL1 | 3
1.17 | 11.2 | 8.83 | inactive | PZP | 1
0.491 | 6.42 | 6.28 | inactive | PZP | 2
-1.17 | -5.26 | 2.67 | inactive | PZP | 3
-0.461 | -0.275 | 3.68 | inactive | CYSRT1 | 1
-0.202 | 1.54 | 4.08 | inactive | CYSRT1 | 2
-0.893 | -3.32 | 3.21 | inactive | CYSRT1 | 3
1.47 | 13.3 | 7.58 | inactive | C2orf42 | 1
-0.0672 | 2.49 | 4.5 | inactive | C2orf42 | 2
-0.854 | -3.04 | 2.99 | inactive | C2orf42 | 3
3.89 | 30.3 | 18.1 | inactive | SYNPO2L | 1
-0.895 | -3.33 | 2.99 | inactive | SYNPO2L | 2
-0.759 | -2.37 | 3.91 | inactive | SYNPO2L | 3
1.91 | 16.4 | 10.4 | inactive | RNF19B | 1
0.334 | 5.32 | 4.79 | inactive | RNF19B | 2
-0.287 | 0.946 | 2.92 | inactive | RNF19B | 3
4.71 | 36.1 | 22.3 | inactive | DDX56 | 1
5.51 | 41.7 | 19.6 | active | DDX56 | 2
5.72 | 43.2 | 20.4 | active | DDX56 | 3
-0.869 | -3.15 | 3.75 | inactive | DIP2C | 1
-0.0578 | 2.56 | 5.19 | inactive | DIP2C | 2
-0.222 | 1.41 | 3.7 | inactive | DIP2C | 3
-0.765 | -2.41 | 4.98 | inactive | GPRC5C | 1
0.296 | 5.05 | 6.28 | inactive | GPRC5C | 2
0.339 | 5.35 | 4.91 | inactive | GPRC5C | 3
-0.172 | 1.76 | 2.94 | inactive | MIEN1 | 1
0.408 | 5.83 | 6.05 | inactive | MIEN1 | 2
-0.0665 | 2.5 | 4.2 | inactive | MIEN1 | 3
